Test results: PubChem BioAssay AID493014 (National Center for Advancing Translational Sciences (NCATS), 2011)
The list shows a part of the results. The main result of the screen is listed elsewhere. These columns were measured beside it and carry no call. Compounds called inactive in the main read-out are mostly missing here. Words in brackets tell the shape of the fitted curve; partial curves, single points and poor fits give uncertain potencies.

Assay: qHTS Assay to Find Inhibitors of Chronic Active B-Cell Receptor Signaling
Conditions: ABC-DLBCL IkBa-CBG/CBR reporter, luminescence ratio (green luciferase fused to IkBa over red control in TMD8 lymphoma cells), 4 h
Procedure, shortened: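 TMD8 ABC-DLBCL cells carrying doxycycline-inducible green luciferase fused to IkappaBalpha plus unfused red luciferase were exposed to compounds (up to 46 uM) for 4 hrs at 37C. Activity came from the overlap-corrected green/red luminescence ratio.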

[1] = measured here: CBR red luminescence, cell number
[2] = measured here: IkBa-CBG green luminescence

Compound | AC50 [1] | AC50 [2]
COc1ccc([C@H]2CC(=O)C=C(c3cccc(Cl)c3O)C2)cc1OC | 4.11 µM [falling, full curve, poor fit] | –
CC(C)n1cnc2cc(NCc3ccccn3)ccc21 | 29.1 µM [falling, single point] | –
CCN(CC)c1ccc(/C=N/NC(=S)NCc2ccc(OC)cc2)cc1 | 7.31 µM [rising, partial curve] | –
Cc1cc(C(=O)NNC(=O)c2cccc(Cl)c2)no1 | 11.2 µM [falling, partial curve] | –
COc1cc(C(=O)NCc2nnc(SCC(=O)N3CCc4ccccc43)o2)cc(OC)c1OC | 29.1 µM [rising, single point] | –
Cc1cccn2c3c(c(=O)nc12)C(c1ccc(F)cc1)CC(=O)N3 (stereo not drawn) | 8.91 µM [falling, partial curve, poor fit] | –
COc1cc(-c2n[nH]c(=S)n2-c2cccc(C(F)(F)F)c2)cc(OC)c1OC | 16.4 µM [rising, single point] | –
O=S(=O)(NCC(c1ccco1)N1CCN(c2ccccc2)CC1)c1ccccc1 (stereo not drawn) | 2.51 µM [rising, full curve, poor fit] | –
COc1ccc(S(=O)(=O)NCC(c2ccc(C)cc2)N2CCN(C)CC2)cc1 (stereo not drawn) | 6.51 µM [rising, single point] | –
Cc1ccc(C(=O)N2CCN(c3cccc(Cl)c3)CC2)cc1C | 18.4 µM [falling, partial curve] | 16.4 µM [rising, partial curve, poor fit]
COc1cc(SC)ccc1C(=O)OCC(=O)N1CC(=O)Nc2ccccc21 | 11.6 µM [rising, partial curve] | –
CCN(Cc1ccncc1)Cc1c(O)ccc2ccccc12 | 7.08 µM [falling, partial curve, poor fit] | –
C/C(=N\NC(N)=S)c1ccccc1 | 11.2 µM [rising, partial curve, poor fit] | –
Cc1ccc([N+](=O)[O-])cc1NC(=O)C1CCN(S(C)(=O)=O)CC1 | 20.6 µM [rising, single point] | –
CC1CCCCN1C(=S)Nc1ccc(OC(F)F)cc1 (stereo not drawn) | 25.9 µM [rising, single point] | –
Cc1ccc(NC(=O)c2ccc(S(=O)(=O)N3CCCCC3)cc2)cc1 | 2.51 µM [falling, partial curve, poor fit] | –
COc1ccccc1NC(=O)c1c(Nc2ccccc2C)sc(C(=O)Nc2cccc(Cl)c2)c1N | 18.4 µM [falling, single point] | 23.1 µM [rising, single point]
COc1ccc(CCNc2nc(-c3cccc(NC(C)=O)c3)cs2)cc1OC | 35.5 µM [falling, single point] | –
c1ccc(Cn2c(NCc3ccncc3)nc3ccccc32)cc1 | 5.62 µM [falling, single point] | –
CC1CN(c2nc3ccccn3c(=O)c2/C=C(\C#N)C(N)=O)CC(C)O1 (stereo not drawn) | 31.6 µM [rising, single point] | –
CCOc1ccc(N2C(=O)C(CC(=O)Nc3ccc(F)cc3)N(Cc3ccccn3)C2=S)cc1 (stereo not drawn) | 28.2 µM [falling, single point] | –

Compound | AC50 [1] | AC50 [2]
Cc1ccc(NC(=O)CN2C(=O)NC3(CCc4ccccc43)C2=O)cc1S(=O)(=O)N1CCCCC1 (stereo not drawn) | 5.17 µM [falling, partial curve, poor fit] | 3.26 µM [rising, partial curve, poor fit]
O=C(CN1CCN(c2ccc(F)cc2)CC1)NCc1ccc(Cl)cc1 | 6.31 µM [falling, partial curve, poor fit] | –
CCn1cc(S(=O)(=O)N2CCCC2)cn1 | 35.5 µM [falling, partial curve, poor fit] | –
Cc1ccc(C)c(NC(=S)N2CCC(c3nc4ccccc4s3)CC2)c1 | 35.5 µM [falling, partial curve, poor fit] | –
O=C(Cc1ccc(Br)cc1)NCCc1ccc(Cl)cc1Cl | 0.082 µM [falling, full curve, poor fit] | –
Cc1c(C#N)c2ccccc2n1CCOc1ccccc1F | 22.4 µM [falling, single point] | –
O=C(COC(=O)c1ccc(O)cc1)NCc1ccc2c(c1)OCO2 | 31.6 µM [falling, single point] | –
C=CC[C@@H](CC(=O)N(CCO)Cc1ccccc1)C(=O)N[C@H](COC(=O)[C@@H](CC=C)CC(=O)OC(C)(C)C)c1ccccc1 | 16.4 µM [falling, single point] | –
C(=N\NC1=Nc2cccc3cccc1c23)/c1ccccc1 | 20.6 µM [falling, partial curve] | –
CCOC(=O)c1c(NC(=O)CNCC(O)CO)sc(C)c1C (stereo not drawn) | 10 µM [falling, partial curve, poor fit] | –
C/C(=N\NC(=O)Nc1ccccc1)c1ccccc1 | 6.51 µM [rising, single point] | –
Cc1ccccc1-c1nnn(Cc2ccc(-c3nn[nH]n3)cc2)n1 | 35.5 µM [falling, single point] | –
O=C(CCC(=O)N1CCN(c2ccccn2)CC1)Nc1nnc(C2CCCCC2)s1 | 15.8 µM [rising, partial curve, poor fit] | –
COC(=O)CSc1nnc(-c2ccc(OC)c(OC)c2)o1 | 35.5 µM [falling, single point] | –
CC1=CC(C)(C)Nc2ccc(OC(=O)c3cccnc3)cc21 | 3.16 µM [falling, full curve, poor fit] | –
Cc1nc2ccccn2c1-c1csc(NCc2ccco2)n1 | 25.9 µM [rising, partial curve] | –
CCO[C@@H]1OC(C(=O)Nc2ccccc2)=C[C@H](C2CC2)[C@H]1CCCO | 0.708 µM [rising, full curve, poor fit] | –
O=S(=O)(NCc1ccncc1)c1ccc(Br)s1 | – | 6.51 µM [rising, single point]
C/C(=N\Nc1nccnc1Cl)c1ccc(F)cc1 | 12.6 µM [falling, partial curve, poor fit] | –
Cn1c(=NC(=O)c2cccc([N+](=O)[O-])c2)sc2ccccc21 | 0.0891 µM [rising, full curve, poor fit] | –
COc1ccc(CCNC(=O)c2c(-c3ccccc3Cl)noc2C)cc1 | 13 µM [rising, partial curve, poor fit] | –

Compound | AC50 [1] | AC50 [2]
Fc1ccc(NC(=S)N/N=C/c2ccc(F)c(F)c2)cc1 | – | 8.91 µM [falling, partial curve]
Cc1ccc(C)c(OCc2cc(C(=O)N3CCNC(=O)C3)no2)c1 | 5.62 µM [rising, single point] | –
O=C(Nc1nnc(Cc2ccccc2)s1)Nc1ccccc1F | 2.51 µM [rising, partial curve, poor fit] | –
Oc1cc(-c2ccncc2)cc2cccnc12 | 18.4 µM [falling, partial curve] | –
Cc1ccc(/C=C/C(=O)Nc2ccc(Oc3ccccc3)cc2)o1 | 13 µM [falling, partial curve, poor fit] | –
COc1cc(C(=O)Nc2ccc3c(c2)N(C(=O)CCN(C)C)c2ccccc2CC3)cc(OC)c1OC | 35.5 µM [falling, single point] | –
CC(NC(=O)c1ccco1)c1nc(-c2ccccc2)no1 (stereo not drawn) | 35.5 µM [rising, partial curve, poor fit] | –
CCOC(=O)C1=C(C)N(CC)C(=S)NC1c1ccc(Cl)cc1 (stereo not drawn) | 18.4 µM [falling, partial curve] | 16.4 µM [rising, partial curve, poor fit]
CN1CCC(N(C)C(=O)COc2ccccc2Cl)CC1 | 0.82 µM [rising, full curve, poor fit] | –
Cc1cc2nc(-c3ccccc3)cc(=O)n2[nH]1 | 0.178 µM [falling, full curve, poor fit] | –
O=C(CCCN1C(=O)c2cccc3cccc(c23)C1=O)N1CCN(c2ccccc2O)CC1 | 2.31 µM [rising, partial curve, poor fit] | 23.1 µM [rising, partial curve, poor fit]
O=C1COc2ccc(C(=O)COC(=O)c3ccc([N+](=O)[O-])cc3Cl)cc2N1 | 6.51 µM [rising, single point] | 5.17 µM [falling, partial curve, poor fit]
COc1cc(/C=N/OCC(=O)NC2CCCCC2)ccc1OCc1ccccc1 | 0.00517 µM [rising, full curve, poor fit] | –
CN1C(=S)SC(C)(C)C1N(O)C(=O)Nc1ccc(Cl)cc1 (stereo not drawn) | 2.82 µM [rising, single point] | –
Cc1ccc(-c2cc(C(=O)NC3CCCC3)no2)cc1 | 7.08 µM [falling, full curve] | –
CC(C)(C)c1ccc(C(=O)N2CCN(Cc3ccccc3)CC2)cc1 | 8.91 µM [falling, partial curve] | –
COc1ccc(-c2cc(=Nc3ccc(C(=O)O)cc3)c3cc(C)ccc3o2)cc1 | 0.891 µM [rising, full curve, poor fit] | –
CC(=O)CCC1CC(c2ccc(Cl)cc2)=NO1 (stereo not drawn) | 2.91 µM [falling, full curve] | –
Cc1cc(C(=O)NNC(=O)c2ccc(Cl)cc2Cl)c(C)o1 | 23.1 µM [falling, partial curve, poor fit] | –
C=CCC[C@H](Cc1ccc(F)cc1)C(=O)OC[C@@H](C)NC(=O)[C@@H](CC=C)CC(=O)N[C@H](CO)Cc1ccccc1 | 13 µM [falling, partial curve] | –

Reprinted at random: 4 entries already listed
Compound | AC50 [1] | AC50 [2]
CCO[C@@H]1OC(C(=O)Nc2ccccc2)=C[C@H](C2CC2)[C@H]1CCCO | 0.708 µM [rising, full curve, poor fit] | –
COc1cc(/C=N/OCC(=O)NC2CCCCC2)ccc1OCc1ccccc1 | 0.00517 µM [rising, full curve, poor fit] | –
CCOc1ccc(N2C(=O)C(CC(=O)Nc3ccc(F)cc3)N(Cc3ccccn3)C2=S)cc1 (stereo not drawn) | 28.2 µM [falling, single point] | –
Cc1nc2ccccn2c1-c1csc(NCc2ccco2)n1 | 25.9 µM [rising, partial curve] | –
